The record followed here is PubChem BioAssay AID463205 (Broad Institute, 2010).

The campaign covered roughly 2,400 compounds. About 20 (0.8%) were called active.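 How the source made its calls: active means AC50 no more than ten times the highest tested concentration, or full inhibition at every dose giving a flat fit (cut at about 30 µM in these data); inconclusive means flat fit with activity between 30% and 70%, or poor-quality invalid fit; inactive means AC50 more than ten times the top tested dose.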 The list shows a part of the results. Bounds are passed on as bounds.

This assay can be described thus: inhibitors of ADP-Glo detection reagents, dose response, artefact control for GSK-3a inhibitor project, biochemical, luminescence, cell-free, homogeneous (AID 463205).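 Further: kinase-free counter-screen against the ADP-Glo detection reagents only; potency is for inhibitors that reduce the luminescence signal.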 Particulars: 5 uM ADP. Background: In ADP-Glo the light output rises with the ADP produced.
What is called AC50 is the midpoint of the concentration-response curve, whichever way the signal moves. With `O=C(NCCCn1ccnc1)C(F)(F)C(F)(F)C(=O)NCCCn1ccnc1`, the AC50 was inactive: > 30 µM.

Turning to `O=C1CC(/C=C/c2ccncc2)=Nc2ccccc2N1`, the AC50 is inactive: > 30 µM.

With `NC(=O)c1c(NC(=O)CN2C(=O)NC(Cc3ccccc3)C2=O)sc2c1CCC2` (stereo not given), the AC50 was inactive: > 30 µM.

Consider `O=C(Nc1ncc([N+](=O)[O-])s1)c1ccc2c(c1)OCO2`, for which the AC50 is inactive: > 30 µM.

For the compound `Cc1nc(SCC(=O)NCC2CCCO2)c2c3c(sc2n1)CCC3` (stereo not given), the AC50 is inactive: > 30 µM.

Turning to `Cc1ccccc1N=Nc1c(O)[nH]c2ccccc12`, the AC50 is inactive: > 30 µM.

In the case of `O=C(CSCc1ccccn1)Nc1ccccc1`, the AC50 was inactive: > 30 µM.

Consider `C[C@H](CO)N1C[C@H](C)[C@@H](CN(C)S(=O)(=O)c2ccc(F)cc2)Oc2c(NC(=O)Nc3ccccc3)cccc2C1=O`, for which the AC50 is inactive: > 30 µM.

Take `N#CC1=C2SCN(Cc3ccccc3)CN2C(=O)CC1c1ccccc1F` (stereo not given): the AC50 was inactive: > 30 µM.

In the case of `Cc1ccc2nc(Cl)c(/C=N/Nc3ccc(C(=O)O)cc3)cc2c1`, the AC50 was inactive: > 30 µM.

As for `Cc1nc2c(C)cccn2c1/C(O)=C1\C(=O)C(=O)N(CCN2CCOCC2)C1c1cccs1` (stereo not given), the AC50 is inactive: > 30 µM.

In the case of `COc1cccc(-c2c(C(=O)N/N=C/c3ccoc3)nnn2-c2nonc2N)c1`, the AC50 is inactive: > 30 µM.

Take `CCc1ccc(/C=N/NC(=O)c2nnn(-c3nonc3N)c2C(C)C)cc1`: the AC50 was inactive: > 30 µM.

Turning to `COCCCNc1nc2nonc2nc1NCCSC`, the AC50 was inactive: > 30 µM.

In the case of `Cc1nnc(SCC(=O)Nc2ccc(Br)cn2)[nH]c1=O`, the AC50 is inactive: > 30 µM.

Take `Cc1cc(N2CCN(c3ccccc3)CC2)n2ncnc2n1`: the AC50 was inactive: > 30 µM.

With `CCN1/C(=C/C(C)=O)Sc2ccc(OC)cc21`, the AC50 was inactive: > 30 µM.

In the case of `O=C(Nc1c(C(=O)C2CC2)oc2ccccc12)c1ccc(Cl)cc1`, the AC50 was inactive: > 30 µM.

With `Cc1cccc(-c2nnc3n2N=C(c2ccc(Br)cc2)CS3)c1`, the AC50 is inactive: > 30 µM.

Turning to `Nc1nonc1-n1nnc(C(=O)N/N=C/c2ccco2)c1-c1ccccc1`, the AC50 was inactive: > 30 µM.

For the compound `CC(=O)Nc1sc2c(c1C(N)=O)CCCC2`, the AC50 is inactive: > 30 µM.

In the case of `CC1(C)CC(=O)C(C=NCCc2ccc(O)cc2)=C(O)C1`, the AC50 was inactive: > 30 µM.

As for `Cc1ccc(Nc2nc(-c3cccnc3)nc3ccccc23)cc1`, the AC50 was inactive: > 30 µM.

For the compound `CCN(CC)c1ccc(C2C(C(=O)OC(C)C)C(=O)CC(C)(O)C2C(=O)OC(C)C)cc1` (stereo not given), the AC50 was inactive: > 30 µM.

Turning to `O=C(CCSCCc1ccccn1)Nc1ccc(Cl)cn1`, the AC50 was inactive: > 30 µM.

Take `O=C1c2cnc3nc(SCc4ccccc4)nn3c2CC2c3ccccc3CCN12` (stereo not given): the AC50 was inactive: > 30 µM.

In the case of `S=c1[nH]nc(-c2cc3c(s2)-c2ccccc2CC3)o1`, the AC50 was inactive: > 30 µM.

As for `CCN(CC)c1ccc(/C=C2\NC(=O)NC2=O)cc1`, the AC50 was inactive: > 30 µM.

Consider `CC(C)(C)C(=O)NC(=S)Nc1sc2c(c1C(N)=O)CCC2`, for which the AC50 is inactive: > 30 µM.

In the case of `CCOC(=O)c1cc(CC)sc1NC(=O)C1CC1`, the AC50 is inactive: > 30 µM.

Consider `c1ccc2c(c1)ccc1nnc(SCc3ccc4c(c3)OCO4)n12`, for which the AC50 is inactive: > 30 µM.

With `COC(=O)C1(C#N)C(c2ccccc2)C1(C(=O)OC)C(=O)OC` (stereo not given), the AC50 was inactive: > 30 µM.

As to `c1ccc2sc(-c3ccc4c(c3)OCO4)nc2c1`, the AC50 was inactive: > 30 µM.

With `Cc1ccsc1C(=O)OCC(=O)N1C(C)CCCC1C` (stereo not given), the AC50 was inactive: > 30 µM.

Regarding `Cc1ccc(N2CC(C(=O)Nc3nccs3)CC2=O)cc1` (stereo not given), the AC50 is inactive: > 30 µM.

For the compound `CN(C)c1ccc(/C=N/NC(=O)c2ccccc2Cl)cc1`, the AC50 was inactive: > 30 µM.

For `C=CCNc1nc(N)c(C(=O)Nc2cc(C)on2)s1`, the AC50 is inactive: > 30 µM.

In the case of `COC(=O)c1ccc2c(=O)[nH]c(COC(=O)c3cccc(S(=O)(=O)N4CCOCC4)c3)nc2c1`, the AC50 was inactive: > 30 µM.

For `O=C(NCc1ccccc1)c1ccc2c(=O)[nH]c3c(C(=O)NCC4CCCO4)sc(=S)n3c2c1` (stereo not given), the AC50 was inactive: > 30 µM.

In the case of `CC(OC(=O)c1cccc(N2C(=O)c3ccccc3C2=O)c1)C(=O)Nc1ccc(N(C)C)cc1` (stereo not given), the AC50 is inactive: > 30 µM.

As to `COCCCNc1nc2ccccc2[nH]c1=O`, the AC50 was inactive: > 30 µM.

In the case of `COc1ccc(NC(=O)c2ccc(NCCCN3CCOCC3)c([N+](=O)[O-])c2)cc1`, the AC50 is inactive: > 30 µM.

As to `O=C(CSc1ccccn1)Nc1nc2ccc(Br)cc2s1`, the AC50 was inactive: > 30 µM.

Consider `CCC(C)[C@H](NC(=O)Nc1ccc(S(N)(=O)=O)cc1)C(=O)O` (stereo not given in full), for which the AC50 is inactive: > 30 µM.

In the case of `CSc1ccc(/C=N/NC(=O)c2ccccc2Cl)cc1`, the AC50 is inactive: > 30 µM.

As for `Cc1ccccc1OCCSc1nnc(C)n1-c1ccccc1`, the AC50 was inactive: > 30 µM.

On to `CCC(=O)/C=C1\Sc2ccc(OC)cc2N1CC`, for which the AC50 was inactive: > 30 µM.

`COc1ccccc1NC(=O)c1cc(Cl)ccc1NC(=O)c1ccco1`: the AC50 is inactive: > 30 µM.

Turning to `CN(Cc1c(C(=O)N/N=C/c2ccc(F)cc2)nnn1-c1nonc1N)C1CCCCC1`, the AC50 is inactive: > 30 µM.

For `CC(C)COC(=O)N1CCCC1C(=O)Nc1nccs1` (stereo not given), the AC50 is inactive: > 30 µM.

With `CCCCC(NS(=O)(=O)c1ccc(OC)cc1)C(=O)O` (stereo not given), the AC50 is inactive: > 30 µM.

Consider `Fc1ccc(-c2nc3n(n2)Cc2ccccc2-3)cc1`, for which the AC50 is inactive: > 30 µM.

Consider `COc1ccccc1Nc1nc(Cl)c(C=O)s1`, for which the AC50 was inactive: > 30 µM.

For the compound `COc1ccccc1N=c1oc2cc(O)ccc2cc1C(N)=O`, the AC50 was inactive: > 30 µM.

For the compound `CN(C)c1ccc(CN2CCCCC2)cc1`, the AC50 is inactive: > 30 µM.

Turning to `CCN(CC)C(=O)c1oc2ccc(S(=O)(=O)N3CCCCCC3)cc2c1C`, the AC50 was inactive: > 30 µM.

As for `Cc1cc(N/N=C/c2ccccc2Br)nc2ccccc12`, the AC50 is inactive: > 30 µM.

Regarding `C#CCOCCOCCOCCNc1nc(N2CCOCC2)nc(N2CCN(C(=O)[C@H](CCC(=O)O)n3cc([C@@H](N)CCCCN)nn3)CC2)n1`, the AC50 was inactive: > 30 µM.

On to `C=CCNC(=S)N/N=C(\C)c1ccc(OC)cc1`, for which the AC50 was inactive: > 30 µM.

As to `COc1ccc(-c2nsc3c(N4CCCCC4C)ncnc23)cc1` (stereo not given), the AC50 is inactive: > 30 µM.

Regarding `COC(=O)C1=C(C(=O)OC)C(c2cc(Cl)ccc2O)c2sc(=O)[nH]c2S1` (stereo not given), the AC50 is inactive: > 30 µM.

In the case of `Oc1ccc(-c2csc(Nc3ccccn3)n2)c(O)c1`, the AC50 is inactive: > 30 µM.

Consider `CCOC(=O)c1oc2ccc3c(c2c1C)C(=O)CC1(CCN(C(=O)OCC)CC1)O3`, for which the AC50 is inactive: > 30 µM.

On to `Brc1ccccc1C1=Nn2c(nnc2-c2ccco2)SC1`, for which the AC50 is inactive: > 30 µM.

With `CC(C)NC(=O)c1sc2nc3c(c(-c4cccs4)c2c1N)CN(C)CC3`, the AC50 is inactive: > 30 µM.

Consider `Cc1cc(NC(=O)COC(=O)c2cc(S(=O)(=O)N3CCOCC3)ccc2N2CCCCC2)no1`, for which the AC50 is inactive: > 30 µM.

As for `CCn1c2ccc(F)cc2c2nc3ccccc3nc21`, the AC50 was inactive: > 30 µM.

Take `COC(=O)c1c(C)c(OC(=O)c2c(C)cc(O)c(C=O)c2O)cc(C)c1O`: the AC50 is inactive: > 30 µM.

As for `Cc1[nH]nc(NCCO)c1[N+](=O)[O-]`, the AC50 is inactive: > 30 µM.

As for `COc1cccc(C2CC(=O)Nc3cc(OC)c(OC)c(OC)c32)c1OC` (stereo not given), the AC50 is inactive: > 30 µM.

As for `CCC(C)Sc1nc2c(c(=O)[nH]1)C(c1cccs1)C1=C(CCCC1=O)N2` (stereo not given), the AC50 is inactive: > 30 µM.

As to `COC(=O)c1sc2nc(N3CCCCC3)c3c(c2c1N)CCCC3`, the AC50 is inactive: > 30 µM.

As to `O=C1CC(c2cccs2)CC2=C1C(c1ccccc1)n1ncnc1N2` (stereo not given), the AC50 is inactive: > 30 µM.

As to `O=S(=O)(c1cccc(NC(=S)NCc2ccco2)c1)N1CCOCC1`, the AC50 was inactive: > 30 µM.

On to `CCn1c(SCC(=O)Nc2nc3ccc(OC)cc3s2)nnc1-c1ccoc1C`, for which the AC50 is inactive: > 30 µM.

`COC(=O)c1cn(-c2ccccc2)nc1-c1cccnc1`: the AC50 is inactive: > 30 µM.

For the compound `COc1ccccc1C(=O)O/N=C(\N)c1ccccn1`, the AC50 is inactive: > 30 µM.

With `CCOC(=O)c1c(NC(=S)N2CCOCC2)sc2c1CCN(C(=O)OCC)C2`, the AC50 was inactive: > 30 µM.

`CCOc1cc2c(C#N)c(N3CCCC3)nc(N)c2c(N)n1`: the AC50 was inactive: > 30 µM.

With `Cc1ccc(-n2nnnc2CSc2nnc(-c3ccc(O)cc3)o2)cc1`, the AC50 is inactive: > 30 µM.

In the case of `O=C(NCc1c(F)cccc1F)c1cc(COc2c(F)cccc2F)on1`, the AC50 is inactive: > 30 µM.

With `O=c1[nH]ncc(N/N=C\c2ccncc2)c1Cl`, the AC50 is inactive: > 30 µM.

In the case of `COCCNc1cc(N)c([N+](=O)[O-])cc1[N+](=O)[O-]`, the AC50 is inactive: > 30 µM.

In the case of `Cc1ccc(SCCc2cc[n+](CC(=O)c3ccccc3)cc2)cc1`, the AC50 is inactive: > 30 µM.

For the compound `Cc1nnc(SCC(=O)Nc2sc3c(c2C(=O)c2ccccc2)CCCC3)s1`, the AC50 was inactive: > 30 µM.

Take `CCSc1nnc2ccc(-c3cccs3)nn12`: the AC50 was inactive: > 30 µM.

Consider `N#Cc1c(Cl)c(Cl)c2nnc(-c3ccc(Br)cc3)n2c1Cl`, for which the AC50 is inactive: > 30 µM.

As to `COc1ccc(C(=O)NNC(=O)c2ccccn2)cc1`, the AC50 is active: 14.9 µM.

For the compound `COC(=O)c1nnn(CC(=O)NC(=O)Nc2cccc(Cl)c2C)c1C(=O)OC`, the AC50 was inactive: > 30 µM.

With `CCOc1ccc(-c2nnc(N)o2)cc1`, the AC50 was inactive: > 30 µM.

Regarding `O=C(Nc1cccc(C(=O)N2CCOCC2)c1)c1cccnc1`, the AC50 is inactive: > 30 µM.

In the case of `Cc1cccc(Nc2ncccc2C(=O)O)c1C`, the AC50 was inactive: > 30 µM.

Turning to `COc1ccc(CCNC(=O)CSc2nc3[nH]ncc3c(=O)n2-c2ccc(Cl)cc2Cl)cc1OC`, the AC50 was inactive: > 30 µM.

On to `CCc1cc2c(NCc3ccco3)ncnc2s1`, for which the AC50 is inactive: > 30 µM.

Regarding `COC(=O)C1C(=O)c2c([nH]c(C(=O)OCCOC(C)C)c2C)CC1C` (stereo not given), the AC50 is inactive: > 30 µM.
